Some of the results follow. The calls rarely recur for the same compound in another form.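 Kinases, fused to nanoluciferase, were expressed in K562 cells; luminescence was measured every 4 h from 2 to 18 h as percent of control (DMSO = 100%, positive control = 0%). A time point is decreased if signal falls significantly (2 sigma). Hits were called by the authors by a rule that is not shown; the count of time points alone does not decide it.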
Key:
Assay in all cases: kinase-Nluc reporter destabilization hit call (1 = scored as downregulated) (binary); higher = compound decreases kinase abundance
Details in all cases: K562; 2-18 h
ABL1 = ABL1 (UniProt P00519)
AKT1 = AKT1 (UniProt P31749)
ALK = ALK (UniProt Q9UM73)
ARAF = ARAF (UniProt P10398)
AURKA = AURKA (UniProt O14965)
AURKB = AURKB (UniProt Q96GD4)
AURKC = AURKC (UniProt Q9UQB9)
BLK = BLK (UniProt P51451)
BMX = BMX (UniProt P51813)
BRAF = BRAF (UniProt P15056)
BRAF_V600E = tested on: BRAF_V600E
BTK = BTK (UniProt Q06187)
CAMK2A = CAMK2A (UniProt Q9UQM7)
CAMK2G = CAMK2G (UniProt Q13555)
CDK10 = CDK10 (UniProt Q15131)
CDK2 = CDK2 (UniProt P24941)
CDK3 = CDK3 (UniProt Q00526)
CDK4 = CDK4 (UniProt P11802)
CDK5 = CDK5 (UniProt Q00535)
CDK6 = CDK6 (UniProt Q00534)

The chains behind the UniProt entries cited, without tags or fusion partners. Where a name states a change or a piece, a line headed by the entry shows the natural chain unless it says otherwise.
UniProt P00519, whole entry: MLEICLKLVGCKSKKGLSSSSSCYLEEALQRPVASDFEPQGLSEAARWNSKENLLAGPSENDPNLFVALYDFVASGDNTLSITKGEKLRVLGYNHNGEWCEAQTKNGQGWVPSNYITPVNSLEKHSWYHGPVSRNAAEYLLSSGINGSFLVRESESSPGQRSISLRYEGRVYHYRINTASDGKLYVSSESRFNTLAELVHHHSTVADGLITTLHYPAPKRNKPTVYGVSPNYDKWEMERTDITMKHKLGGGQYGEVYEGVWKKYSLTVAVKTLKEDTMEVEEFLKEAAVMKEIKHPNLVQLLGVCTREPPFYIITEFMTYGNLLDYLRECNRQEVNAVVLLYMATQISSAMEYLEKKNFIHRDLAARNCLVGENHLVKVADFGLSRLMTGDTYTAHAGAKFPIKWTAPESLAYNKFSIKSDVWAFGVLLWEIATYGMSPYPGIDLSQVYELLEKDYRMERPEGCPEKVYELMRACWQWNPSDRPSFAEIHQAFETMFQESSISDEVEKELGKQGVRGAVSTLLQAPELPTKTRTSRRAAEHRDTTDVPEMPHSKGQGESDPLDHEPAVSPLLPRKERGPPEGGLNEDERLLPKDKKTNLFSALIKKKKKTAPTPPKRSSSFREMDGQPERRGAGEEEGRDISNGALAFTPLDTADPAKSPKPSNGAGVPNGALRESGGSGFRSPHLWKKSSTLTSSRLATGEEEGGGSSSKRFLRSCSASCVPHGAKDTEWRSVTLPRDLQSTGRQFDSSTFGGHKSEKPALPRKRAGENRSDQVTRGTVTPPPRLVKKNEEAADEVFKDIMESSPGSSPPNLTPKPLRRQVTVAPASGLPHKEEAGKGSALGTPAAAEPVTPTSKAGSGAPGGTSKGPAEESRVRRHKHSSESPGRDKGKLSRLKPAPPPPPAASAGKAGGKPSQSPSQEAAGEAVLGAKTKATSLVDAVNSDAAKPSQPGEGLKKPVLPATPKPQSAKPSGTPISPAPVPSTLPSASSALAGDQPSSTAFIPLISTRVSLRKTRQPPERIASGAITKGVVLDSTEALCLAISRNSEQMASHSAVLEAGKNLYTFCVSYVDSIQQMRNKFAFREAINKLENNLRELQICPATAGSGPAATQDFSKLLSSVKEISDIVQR
UniProt P31749: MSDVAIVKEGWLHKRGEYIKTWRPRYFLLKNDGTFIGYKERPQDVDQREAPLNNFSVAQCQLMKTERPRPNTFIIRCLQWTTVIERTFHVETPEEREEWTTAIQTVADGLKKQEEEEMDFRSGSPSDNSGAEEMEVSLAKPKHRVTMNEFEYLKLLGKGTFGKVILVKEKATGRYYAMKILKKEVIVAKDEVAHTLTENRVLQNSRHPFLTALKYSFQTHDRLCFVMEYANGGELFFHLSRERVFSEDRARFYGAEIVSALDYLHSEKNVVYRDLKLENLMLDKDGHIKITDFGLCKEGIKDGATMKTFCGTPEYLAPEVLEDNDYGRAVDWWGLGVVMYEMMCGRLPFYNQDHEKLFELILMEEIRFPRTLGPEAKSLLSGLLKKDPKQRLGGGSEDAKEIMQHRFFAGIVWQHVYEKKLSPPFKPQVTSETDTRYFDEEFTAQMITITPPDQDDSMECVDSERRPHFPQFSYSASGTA
UniProt O14965: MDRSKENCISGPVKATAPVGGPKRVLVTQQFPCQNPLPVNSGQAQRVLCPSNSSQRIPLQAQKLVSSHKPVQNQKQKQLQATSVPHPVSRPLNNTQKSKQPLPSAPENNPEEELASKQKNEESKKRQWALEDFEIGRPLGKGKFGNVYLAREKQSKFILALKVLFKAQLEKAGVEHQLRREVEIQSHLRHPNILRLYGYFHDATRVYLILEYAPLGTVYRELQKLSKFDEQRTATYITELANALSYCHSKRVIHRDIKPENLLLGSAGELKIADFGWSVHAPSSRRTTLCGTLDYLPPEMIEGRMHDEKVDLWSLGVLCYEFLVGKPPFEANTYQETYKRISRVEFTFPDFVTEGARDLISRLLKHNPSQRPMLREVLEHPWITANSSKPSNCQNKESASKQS
UniProt Q96GD4, whole entry: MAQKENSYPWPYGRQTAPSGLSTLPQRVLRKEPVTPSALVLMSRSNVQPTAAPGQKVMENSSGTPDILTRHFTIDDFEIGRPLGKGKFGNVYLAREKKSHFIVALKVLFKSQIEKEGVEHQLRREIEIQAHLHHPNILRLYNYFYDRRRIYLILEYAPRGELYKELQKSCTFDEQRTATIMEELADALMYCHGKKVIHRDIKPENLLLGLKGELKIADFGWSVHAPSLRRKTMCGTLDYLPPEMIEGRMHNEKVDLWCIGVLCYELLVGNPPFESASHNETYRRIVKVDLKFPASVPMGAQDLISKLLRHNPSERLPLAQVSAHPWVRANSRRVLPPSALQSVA
UniProt Q9UQB9: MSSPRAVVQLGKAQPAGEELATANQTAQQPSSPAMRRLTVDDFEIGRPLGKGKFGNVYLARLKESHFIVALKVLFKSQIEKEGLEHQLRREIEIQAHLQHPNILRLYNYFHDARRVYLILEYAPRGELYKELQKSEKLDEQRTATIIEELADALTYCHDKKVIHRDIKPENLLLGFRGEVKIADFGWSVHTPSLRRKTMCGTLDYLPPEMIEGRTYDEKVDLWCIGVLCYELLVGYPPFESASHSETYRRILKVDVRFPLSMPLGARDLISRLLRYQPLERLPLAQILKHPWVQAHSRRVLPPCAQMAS
UniProt P51451: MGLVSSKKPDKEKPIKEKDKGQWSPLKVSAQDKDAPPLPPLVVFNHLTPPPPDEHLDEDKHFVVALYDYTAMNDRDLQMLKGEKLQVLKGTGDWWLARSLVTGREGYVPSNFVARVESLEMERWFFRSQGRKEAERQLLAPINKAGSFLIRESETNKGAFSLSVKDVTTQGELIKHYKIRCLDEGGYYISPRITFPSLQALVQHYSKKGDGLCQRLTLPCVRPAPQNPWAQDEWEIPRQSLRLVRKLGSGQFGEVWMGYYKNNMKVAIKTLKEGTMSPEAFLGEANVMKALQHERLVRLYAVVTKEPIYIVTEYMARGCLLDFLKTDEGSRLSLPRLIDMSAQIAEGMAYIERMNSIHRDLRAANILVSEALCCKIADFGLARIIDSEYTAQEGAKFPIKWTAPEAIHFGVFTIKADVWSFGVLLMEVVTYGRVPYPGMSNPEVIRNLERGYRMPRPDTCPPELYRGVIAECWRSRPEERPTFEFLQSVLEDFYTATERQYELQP
UniProt P51813: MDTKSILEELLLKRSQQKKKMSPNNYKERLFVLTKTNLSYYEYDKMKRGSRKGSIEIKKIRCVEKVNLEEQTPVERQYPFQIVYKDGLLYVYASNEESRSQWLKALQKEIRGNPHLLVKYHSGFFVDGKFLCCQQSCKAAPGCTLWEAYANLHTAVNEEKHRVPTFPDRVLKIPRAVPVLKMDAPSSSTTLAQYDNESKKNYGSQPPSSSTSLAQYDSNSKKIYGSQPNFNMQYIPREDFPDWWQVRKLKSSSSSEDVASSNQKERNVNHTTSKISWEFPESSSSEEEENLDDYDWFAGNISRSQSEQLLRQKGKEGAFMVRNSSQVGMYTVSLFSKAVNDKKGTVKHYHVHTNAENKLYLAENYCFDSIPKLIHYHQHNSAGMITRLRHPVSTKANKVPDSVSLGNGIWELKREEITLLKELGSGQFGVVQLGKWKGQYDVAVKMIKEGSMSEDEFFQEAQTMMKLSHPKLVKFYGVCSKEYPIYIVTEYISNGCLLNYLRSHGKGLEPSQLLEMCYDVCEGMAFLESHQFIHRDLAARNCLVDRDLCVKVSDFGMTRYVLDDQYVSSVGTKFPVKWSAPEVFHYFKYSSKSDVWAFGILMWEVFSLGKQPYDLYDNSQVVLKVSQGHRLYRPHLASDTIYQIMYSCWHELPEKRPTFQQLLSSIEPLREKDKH
UniProt Q06187: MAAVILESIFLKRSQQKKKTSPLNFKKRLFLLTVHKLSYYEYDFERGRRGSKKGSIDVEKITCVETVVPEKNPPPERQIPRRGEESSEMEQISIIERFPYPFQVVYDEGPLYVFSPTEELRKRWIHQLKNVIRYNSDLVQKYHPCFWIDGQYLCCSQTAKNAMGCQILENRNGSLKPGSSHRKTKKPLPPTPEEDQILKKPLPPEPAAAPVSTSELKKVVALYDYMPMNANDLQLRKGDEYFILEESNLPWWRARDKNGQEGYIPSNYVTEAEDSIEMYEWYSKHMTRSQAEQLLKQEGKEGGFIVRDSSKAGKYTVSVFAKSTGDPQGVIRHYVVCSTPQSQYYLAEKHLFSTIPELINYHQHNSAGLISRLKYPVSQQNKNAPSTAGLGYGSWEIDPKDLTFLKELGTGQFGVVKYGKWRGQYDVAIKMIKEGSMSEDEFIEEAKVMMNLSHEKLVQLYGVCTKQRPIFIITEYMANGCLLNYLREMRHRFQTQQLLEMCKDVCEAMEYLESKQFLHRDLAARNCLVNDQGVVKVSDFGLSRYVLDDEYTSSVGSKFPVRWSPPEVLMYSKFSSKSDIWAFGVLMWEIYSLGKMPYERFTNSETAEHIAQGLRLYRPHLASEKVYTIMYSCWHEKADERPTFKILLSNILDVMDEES
UniProt Q9UQM7, whole entry: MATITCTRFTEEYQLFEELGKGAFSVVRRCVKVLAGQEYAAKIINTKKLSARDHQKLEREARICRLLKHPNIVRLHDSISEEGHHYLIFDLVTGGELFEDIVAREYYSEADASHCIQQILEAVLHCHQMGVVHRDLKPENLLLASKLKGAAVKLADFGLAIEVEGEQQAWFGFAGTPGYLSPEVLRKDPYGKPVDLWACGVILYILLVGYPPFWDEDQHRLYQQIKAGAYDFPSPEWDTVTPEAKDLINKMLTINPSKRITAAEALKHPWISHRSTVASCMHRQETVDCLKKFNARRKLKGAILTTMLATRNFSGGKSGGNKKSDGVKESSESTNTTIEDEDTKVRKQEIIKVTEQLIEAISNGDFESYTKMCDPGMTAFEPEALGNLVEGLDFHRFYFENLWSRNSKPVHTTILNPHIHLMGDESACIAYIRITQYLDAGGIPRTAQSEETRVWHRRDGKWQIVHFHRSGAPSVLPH
UniProt Q15131: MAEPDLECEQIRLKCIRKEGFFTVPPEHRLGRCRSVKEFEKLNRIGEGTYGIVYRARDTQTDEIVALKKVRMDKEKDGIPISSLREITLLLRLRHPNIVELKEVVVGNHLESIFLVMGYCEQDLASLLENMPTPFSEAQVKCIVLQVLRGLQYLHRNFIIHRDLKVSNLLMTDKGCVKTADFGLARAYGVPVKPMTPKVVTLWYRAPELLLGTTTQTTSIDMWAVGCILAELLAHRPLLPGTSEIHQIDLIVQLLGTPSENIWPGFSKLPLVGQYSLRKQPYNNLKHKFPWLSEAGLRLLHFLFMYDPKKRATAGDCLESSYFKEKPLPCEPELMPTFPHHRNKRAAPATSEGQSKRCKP
UniProt Q00526: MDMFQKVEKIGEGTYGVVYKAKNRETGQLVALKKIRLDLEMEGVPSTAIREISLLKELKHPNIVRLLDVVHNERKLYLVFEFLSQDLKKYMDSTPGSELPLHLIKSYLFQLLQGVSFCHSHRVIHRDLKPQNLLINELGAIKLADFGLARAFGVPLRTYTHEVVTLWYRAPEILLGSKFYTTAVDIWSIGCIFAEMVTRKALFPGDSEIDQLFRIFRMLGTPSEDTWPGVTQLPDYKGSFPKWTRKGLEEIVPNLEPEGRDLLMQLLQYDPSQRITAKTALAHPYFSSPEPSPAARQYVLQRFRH
UniProt P11802: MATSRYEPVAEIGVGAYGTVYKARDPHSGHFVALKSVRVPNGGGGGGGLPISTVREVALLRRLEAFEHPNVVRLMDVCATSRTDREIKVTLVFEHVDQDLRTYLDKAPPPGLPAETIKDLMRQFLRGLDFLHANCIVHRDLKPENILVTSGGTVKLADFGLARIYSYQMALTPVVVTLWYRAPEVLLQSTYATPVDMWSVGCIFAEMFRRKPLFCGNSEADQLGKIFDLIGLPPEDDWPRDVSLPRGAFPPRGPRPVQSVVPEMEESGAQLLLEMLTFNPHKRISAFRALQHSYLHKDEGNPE
UniProt Q00535, whole entry, looked up: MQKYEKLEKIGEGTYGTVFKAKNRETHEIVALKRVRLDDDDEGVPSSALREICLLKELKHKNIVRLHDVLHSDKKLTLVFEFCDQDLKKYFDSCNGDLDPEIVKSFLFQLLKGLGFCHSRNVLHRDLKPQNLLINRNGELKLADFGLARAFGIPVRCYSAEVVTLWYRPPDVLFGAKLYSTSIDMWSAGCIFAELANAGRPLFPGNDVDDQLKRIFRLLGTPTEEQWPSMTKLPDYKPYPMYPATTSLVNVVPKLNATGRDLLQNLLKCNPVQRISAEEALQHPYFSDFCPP
UniProt Q00534, whole entry: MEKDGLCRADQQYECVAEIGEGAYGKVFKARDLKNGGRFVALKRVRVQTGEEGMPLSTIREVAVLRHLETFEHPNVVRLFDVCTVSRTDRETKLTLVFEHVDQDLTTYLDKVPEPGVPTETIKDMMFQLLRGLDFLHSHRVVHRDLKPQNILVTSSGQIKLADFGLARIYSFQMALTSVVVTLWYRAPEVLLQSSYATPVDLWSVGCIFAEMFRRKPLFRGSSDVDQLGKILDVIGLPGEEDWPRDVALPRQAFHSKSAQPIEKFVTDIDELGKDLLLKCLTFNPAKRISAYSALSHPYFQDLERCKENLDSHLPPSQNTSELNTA

Row | SMILES | kinase-Nluc reporter destabilization hit call (ABL1) | kinase-Nluc reporter destabilization hit call (AKT1) | kinase-Nluc reporter destabilization hit call (ALK) | kinase-Nluc reporter destabilization hit call (ARAF) | kinase-Nluc reporter destabilization hit call (AURKA) | kinase-Nluc reporter destabilization hit call (AURKB) | kinase-Nluc reporter destabilization hit call (AURKC) | kinase-Nluc reporter destabilization hit call (BLK) | kinase-Nluc reporter destabilization hit call (BMX) | kinase-Nluc reporter destabilization hit call (BRAF) | kinase-Nluc reporter destabilization hit call (BRAF_V600E) | kinase-Nluc reporter destabilization hit call (BTK) | kinase-Nluc reporter destabilization hit call (CAMK2A) | kinase-Nluc reporter destabilization hit call (CAMK2G) | kinase-Nluc reporter destabilization hit call (CDK10) | kinase-Nluc reporter destabilization hit call (CDK2) | kinase-Nluc reporter destabilization hit call (CDK3) | kinase-Nluc reporter destabilization hit call (CDK4) | kinase-Nluc reporter destabilization hit call (CDK5) | kinase-Nluc reporter destabilization hit call (CDK6)
1 | O=C1Nc2ccccc2/C1=C/c1ccc(F)cc1 (10 µM) | inactive: 0 | inactive: 0 | inactive: 0 | inactive: 0 | inactive: 0 | inactive: 0 | inactive: 0 | inactive: 0 | inactive: 0 | inactive: 0 | inactive: 0 | inactive: 0 | inactive: 0 | inactive: 0 | inactive: 0 | inactive: 0 | inactive: 0 | inactive: 0 | inactive: 0 | inactive: 0
2 | C[C@]1(O)C[C@@H](c2nc(-c3ccc4ccc(-c5ccccc5)nc4c3)c3c(N)nccn32)C1 [Linsitinib] (2.5 µM) | inactive: 0 | inactive: 0 | inactive: 0 | inactive: 0 | inactive: 0 | inactive: 0 | inactive: 0 | inactive: 0 | inactive: 0 | inactive: 0 | inactive: 0 | inactive: 0 | inactive: 0 | inactive: 0 | inactive: 0 | inactive: 0 | inactive: 0 | inactive: 0 | inactive: 0 | inactive: 0
3 | Cc1ccc(F)c(NC(=O)Nc2ccc(-c3cccc4[nH]nc(N)c34)cc2)c1 [Linifanib] (2.5 µM) | active: 1 | inactive: 0 | active: 1 | inactive: 0 | inactive: 0 | inactive: 0 | inactive: 0 | inactive: 0 | inactive: 0 | inactive: 0 | inactive: 0 | inactive: 0 | inactive: 0 | inactive: 0 | active: 1 | inactive: 0 | inactive: 0 | inactive: 0 | inactive: 0 | inactive: 0
4 | Cc1c[nH]c2ccccc12 [Skatole] (10 µM) | inactive: 0 | inactive: 0 | inactive: 0 | inactive: 0 | inactive: 0 | inactive: 0 | inactive: 0 | inactive: 0 | inactive: 0 | inactive: 0 | inactive: 0 | inactive: 0 | inactive: 0 | inactive: 0 | inactive: 0 | inactive: 0 | inactive: 0 | inactive: 0 | inactive: 0 | inactive: 0
5 | COc1ccc2c(C(=O)Nc3ccc(NC(=O)c4nn(C5CCN(C(=O)CC(C)(C)C#N)CC5)c5ccc(F)cc45)cc3Cl)cnn2c1 [Src Inhibitor 3] (2.5 µM) | inactive: 0 | inactive: 0 | inactive: 0 | inactive: 0 | inactive: 0 | inactive: 0 | inactive: 0 | inactive: 0 | inactive: 0 | inactive: 0 | inactive: 0 | inactive: 0 | inactive: 0 | inactive: 0 | inactive: 0 | inactive: 0 | inactive: 0 | inactive: 0 | inactive: 0 | inactive: 0
6 | O=c1c(-c2ccc(O)cc2)coc2cc(O)cc(O)c12 [Genistein] (10 µM) | inactive: 0 | inactive: 0 | inactive: 0 | inactive: 0 | inactive: 0 | inactive: 0 | inactive: 0 | inactive: 0 | inactive: 0 | inactive: 0 | inactive: 0 | inactive: 0 | inactive: 0 | inactive: 0 | inactive: 0 | inactive: 0 | inactive: 0 | inactive: 0 | inactive: 0 | inactive: 0
7 | Cc1nc(N)sc1-c1ccnc(Nc2ccc(N3CCOCC3)cc2)n1 (10 µM) | inactive: 0 | inactive: 0 | inactive: 0 | inactive: 0 | inactive: 0 | inactive: 0 | inactive: 0 | inactive: 0 | inactive: 0 | inactive: 0 | inactive: 0 | inactive: 0 | inactive: 0 | inactive: 0 | inactive: 0 | inactive: 0 | inactive: 0 | inactive: 0 | inactive: 0 | inactive: 0
8 | CCN(CC)CCCCNc1ncc2cc(-c3cc(OC)cc(OC)c3)c(NC(=O)NC(C)(C)C)nc2n1 (10 µM) | inactive: 0 | inactive: 0 | inactive: 0 | inactive: 0 | inactive: 0 | inactive: 0 | inactive: 0 | inactive: 0 | inactive: 0 | inactive: 0 | inactive: 0 | inactive: 0 | inactive: 0 | inactive: 0 | inactive: 0 | inactive: 0 | inactive: 0 | inactive: 0 | inactive: 0 | inactive: 0
9 | Oc1ccc(-c2nc(-c3ccc(F)cc3)c(-c3ccncc3)[nH]2)cc1 (2.5 µM) | inactive: 0 | inactive: 0 | inactive: 0 | inactive: 0 | inactive: 0 | inactive: 0 | inactive: 0 | inactive: 0 | inactive: 0 | inactive: 0 | inactive: 0 | inactive: 0 | inactive: 0 | inactive: 0 | inactive: 0 | inactive: 0 | inactive: 0 | inactive: 0 | inactive: 0 | inactive: 0

Reference: the supplement of paper PMC12823440, “Inhibitors supercharge kinase turnover through native proteolytic circuits” (Nature, 2025)
